These are yes or no findings as the source states them, for the method shown. Binding seen in cells or lysates may run through a third protein. Some entries that bind do so weakly or less than the wild type.

Protein sequences, listed by entry. Tags and fused reporters are not part of them.
UniProt P20719: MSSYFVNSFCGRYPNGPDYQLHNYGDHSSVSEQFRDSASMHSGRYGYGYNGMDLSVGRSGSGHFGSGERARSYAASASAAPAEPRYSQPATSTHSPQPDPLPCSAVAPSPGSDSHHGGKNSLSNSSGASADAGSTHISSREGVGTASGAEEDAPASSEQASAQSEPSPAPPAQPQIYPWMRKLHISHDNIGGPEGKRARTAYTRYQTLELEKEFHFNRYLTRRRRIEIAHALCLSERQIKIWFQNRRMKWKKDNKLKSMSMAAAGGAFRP

The source of these data is PMC10579307.

This test concerns the target Homeobox A5 (HOXA5) (human (endogenous in PCa cells)) (UniProt P20719). As to the kind of experiment: co-IP; endogenous co-immunoprecipitation in PCa cells; lysates (western blotting and IP lysis buffer) incubated with antibody against HOXA5 or TRAF7 or negative control IgG at 4 °C overnight; Pierce Co-Immunoprecipitation Kit; SDS-PAGE and western blotting; both directions. On the technique in general: A western blot detects proteins with antibodies after separation by electrophoresis.

B1: tumor necrosis factor receptor-associated factor 7 (TRAF7) (protein, UniProt Q6Q0C0 1-670)
chain: MSSGKSARYNRFSGGPSNLPTPDVTTGTRMETTFGPAFSAVTTITKADGTSTYKQHCRTPSSSSTLAYSPRDEEDSMPPISTPRRSDSAISVRSLHSESSMSLRSTFSLPEEEEEPEPLVFAEQPSVKLCCQLCCSVFKDPVITTCGHTFCRRCALKSEKCPVDNVKLTVVVNNIAVAEQIGELFIHCRHGCRVAGSGKPPIFEVDPRGCPFTIKLSARKDHEGSCDYRPVRCPNNPSCPPLLRMNLEAHLKECEHIKCPHSKYGCTFIGNQDTYETHLETCRFEGLKEFLQQTDDRFHEMHVALAQKDQEIAFLRSMLGKLSEKIDQLEKSLELKFDVLDENQSKLSEDLMEFRRDASMLNDELSHINARLNMGILGSYDPQQIFKCKGTFVGHQGPVWCLCVYSMGDLLFSGSSDKTIKVWDTCTTYKCQKTLEGHDGIVLALCIQGCKLYSGSADCTIIVWDIQNLQKVNTIRAHDNPVCTLVSSHNVLFSGSLKAIKVWDIVGTELKLKKELTGLNHWVRALVAAQSYLYSGSYQTIKIWDIRTLDCIHVLQTSGGSVYSIAVTNHHIVCGTYENLIHVWDIESKEQVRTLTGHVGTVYALAVISTPDQTKVFSASYDRSLRVWSMDNMICTQTLLRHQGSVTALAVSRGRLFSGAVDSTVKVWTC
With B1, the binding entry was “binds”.
